From publication PMC4555926
Results are given in words; binding and its absence hold for the method and conditions named.

Biological target: SPRY domain of human DDX1, construct SPRY_72–283 (human) (UniProt Q92499)
Assay: dynamic light scattering; 25 µM (650 µg/ml) protein in storage buffer (10 mM HEPES-NaOH pH 8.0, 250 mM KCl, 5 mM MgCl2, 3 mM DTE); scattered light at 90°, hydrodynamic radius 2.8 nm; both purified

binding: no binding (tested: 25 µM)
B1: SPRY domain of human DDX1, construct SPRY_72–283 (domain or fragment, UniProt Q92499 72-283)
chain: QEGKKGKTTIKTGASVLNKWQMNPYDRGSAFAIGSDGLCCQSREVKEWHGCRATKGLMKGKHYYEVSCHDQGLCRVGWSTMQASLDLGTDKFGFGFGGTGKKSHNKQFDNYGEEFTMHDTIGCYLDIDKGHVKFSKNGKDLGLAFEIPPHMKNQALFPACVLKNAELKFNFGEEEFKFPPKDGFVALSKAPDGYIVKSQHSGNAQVTQTKFL
